# The list shows a part of the results, in another mix than the full data. At the low end of the ranking, values are background and their order means little.
# Sequences of proteins named here, by UniProt entry; tags and fusion partners are left off. A change or cut given only in a name is not applied to a line headed by its entry.
# UniProt Q01892: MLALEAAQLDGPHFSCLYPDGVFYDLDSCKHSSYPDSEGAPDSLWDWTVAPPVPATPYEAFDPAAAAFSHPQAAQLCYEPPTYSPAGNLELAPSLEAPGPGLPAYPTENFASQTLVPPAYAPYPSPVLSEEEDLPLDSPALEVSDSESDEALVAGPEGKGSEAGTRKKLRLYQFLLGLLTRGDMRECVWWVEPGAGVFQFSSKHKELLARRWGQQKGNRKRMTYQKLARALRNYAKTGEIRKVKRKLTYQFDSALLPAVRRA
# UniProt Q99607: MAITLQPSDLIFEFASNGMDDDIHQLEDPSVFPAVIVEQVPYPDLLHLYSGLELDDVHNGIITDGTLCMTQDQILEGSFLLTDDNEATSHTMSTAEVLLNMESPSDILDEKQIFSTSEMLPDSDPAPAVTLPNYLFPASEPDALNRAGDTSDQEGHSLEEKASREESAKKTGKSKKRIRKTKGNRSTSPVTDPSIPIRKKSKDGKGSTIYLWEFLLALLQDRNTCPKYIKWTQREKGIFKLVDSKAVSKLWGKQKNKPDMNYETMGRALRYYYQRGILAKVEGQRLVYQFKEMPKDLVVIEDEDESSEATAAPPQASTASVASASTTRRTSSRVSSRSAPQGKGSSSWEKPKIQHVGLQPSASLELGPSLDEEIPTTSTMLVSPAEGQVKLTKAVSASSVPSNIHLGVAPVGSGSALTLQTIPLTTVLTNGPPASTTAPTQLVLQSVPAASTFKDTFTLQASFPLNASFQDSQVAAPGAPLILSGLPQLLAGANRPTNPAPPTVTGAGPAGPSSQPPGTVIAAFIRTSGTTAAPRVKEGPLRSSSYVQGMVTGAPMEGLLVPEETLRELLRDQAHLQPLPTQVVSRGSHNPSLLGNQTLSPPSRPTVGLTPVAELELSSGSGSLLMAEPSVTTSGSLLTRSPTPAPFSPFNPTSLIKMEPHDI
# What was measured:
# Experiment in all cases: DAPPL (digital affinity profiling via proximity ligation, sequencing)
# Details in all cases: 10 mM Tris-HCl pH 7.5, 50 mM NaCl, 1 mM DTT, 4% glycerol, room temperature, 30 min; GST-TFs on glutathione beads, 16-mer random dsDNA library, 0.1% …; high values mean tight binding; double strand, one strand shown; scale: fold enrichment (6-mer frequency, TF over GST control)
# SPIB = SPIB (UniProt Q01892)
# ELF4 = ELF4 (UniProt Q99607)
# ETV2 = molecular target: T1, ETV2 (UniProt O00321)
# T1 sequence: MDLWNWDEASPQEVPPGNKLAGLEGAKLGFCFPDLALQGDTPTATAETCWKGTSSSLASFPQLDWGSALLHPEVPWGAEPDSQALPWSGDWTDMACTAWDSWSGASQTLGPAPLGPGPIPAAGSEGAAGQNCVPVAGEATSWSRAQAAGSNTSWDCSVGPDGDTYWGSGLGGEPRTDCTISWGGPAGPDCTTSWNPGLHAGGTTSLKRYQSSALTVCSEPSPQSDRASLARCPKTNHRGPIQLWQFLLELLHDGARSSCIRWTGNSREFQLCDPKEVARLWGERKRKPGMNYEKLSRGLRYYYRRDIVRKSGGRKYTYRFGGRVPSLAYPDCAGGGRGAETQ
# ETV3L = molecular target: T2, ETV3L (UniProt Q6ZN32)
# T2 sequence: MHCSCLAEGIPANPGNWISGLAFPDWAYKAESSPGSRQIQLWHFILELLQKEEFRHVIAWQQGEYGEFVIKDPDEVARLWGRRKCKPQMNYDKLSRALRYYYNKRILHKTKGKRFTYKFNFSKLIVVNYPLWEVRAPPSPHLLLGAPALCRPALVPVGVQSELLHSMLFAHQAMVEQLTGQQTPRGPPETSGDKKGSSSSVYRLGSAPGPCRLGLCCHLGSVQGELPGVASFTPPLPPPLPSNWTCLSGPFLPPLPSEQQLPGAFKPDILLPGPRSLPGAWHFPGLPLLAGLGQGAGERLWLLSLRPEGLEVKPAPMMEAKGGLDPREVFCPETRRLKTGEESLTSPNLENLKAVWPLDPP
# EHF = molecular target: T3, EHF (UniProt Q9NZC4)
# T3 sequence: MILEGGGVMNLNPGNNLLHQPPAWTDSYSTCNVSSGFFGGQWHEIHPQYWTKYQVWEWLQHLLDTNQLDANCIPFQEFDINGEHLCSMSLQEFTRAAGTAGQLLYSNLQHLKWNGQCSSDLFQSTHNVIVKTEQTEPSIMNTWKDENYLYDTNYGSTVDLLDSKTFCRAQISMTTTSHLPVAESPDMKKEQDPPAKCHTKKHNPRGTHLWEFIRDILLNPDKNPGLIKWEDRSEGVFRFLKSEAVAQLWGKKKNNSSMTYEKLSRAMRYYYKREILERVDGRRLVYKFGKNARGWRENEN
Sequence,binding signal (SPIB),binding signal (ELF4),binding signal (ETV2),binding signal (ETV3L),binding signal (EHF)
AAGGCA,0.971,1.03,0.889,,
ACACTG,,1.03,,1.11,
ACGTTT,1.35,1.14,,1.13,
GCTAAC,0.989,0.971,,0.99,
CTGTGC,1.13,1.21,,1.13,
CATGTA,0.996,1.14,,1.16,
CTCATC,,1.35,,1.5,
GCCGCC,0.958,1.08,0.836,,
GTCACT,,1.09,,1.08,1.15
TGCGTT,1.11,1.05,1.16,,
TTTTAG,1.3,1.24,,1.26,
TCAGTT,0.987,0.982,,1.05,0.928
TTGCAA,,1.19,,1.19,
TCAATT,,1.18,,1.29,
GCCTGA,,1.06,,1.12,0.98
CGCCCC,,1.28,,1.31,
CACACG,1.15,1.18,1.24,,1.12
AGTGGC,,1.19,,1.15,1.4
CCTTAA,,1.3,,1.44,
ACGACG,0.974,1.2,1.16,,
CCTGCT,1.59,1.69,1.59,,
TTCTTA,1.28,1.41,1.36,,
GTAGCT,,,0.957,,1.12

# Not a retest: entries from further up.
Sequence,binding signal (SPIB),binding signal (ELF4),binding signal (ETV2),binding signal (ETV3L),binding signal (EHF)
GCCTGA,,1.06,,1.12,0.98
CGCCCC,,1.28,,1.31,

# Source: publication PMC7862700
